Assay results: PubChem BioAssay AID1487 (National Center for Advancing Translational Sciences (NCATS), 2009)
The other results are listed elsewhere or left out. Shown are side measurements of this screen, not its main read-out; they come without a call. Compounds called inactive in the main read-out are mostly missing here. The note in brackets gives the kind of curve behind each potency; many fits are weak.

Assay: qHTS Assay for Modulators of Lamin A Splicing
Conditions: HeLa LMNA splicing GFP/RFP minigene ratio, 48 h
Procedure, shortened: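 S3 HeLa stable clones carrying a lamin A-EGFP splicing minigene plus DsRed2 were seeded at 600 cells/well in Opti-MEM with 2% FBS, pin-dosed and incubated 48 h at 37°C. Acumen cytometry (488 nm) gave the GFP/RFP total-intensity ratio.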

[1] = measured here: GFP splicing reporter channel
[2] = measured here: RFP viability control channel

Row | Compound | AC50 [1] | AC50 [2]
1 | Nc1c(-c2cccs2)cnn1-c1nc(-c2ccc(Cl)cc2Cl)cs1 | 14.1 µM [falling, partial curve] | 14.1 µM [falling, partial curve, poor fit]
2 | O=C(Nc1ccc(Cl)cc1)c1cccs1 | 14.1 µM [rising, single point] | 31.6 µM [rising, single point]
3 | Cc1ccccc1Nc1nnc(SCC(=O)Nc2ccccc2[N+](=O)[O-])s1 | – | 31.6 µM [rising, single point]
4 | Cc1ccc(N2CCN(S(=O)(=O)c3nnc(NC(=O)c4cccc(F)c4)s3)CC2)cc1 | 0.2 µM [rising, full curve, poor fit] | 0.355 µM [rising, full curve, poor fit]
5 | COc1cccc(NC(=O)C2CCN(Cc3cnn(-c4ccccc4)c3-n3cccc3)CC2)c1 | – | 12.6 µM [rising, partial curve]
6 | COc1ccc(-c2nc(-c3ccccc3)c(-c3cccs3)[nH]2)cc1OC | 20 µM [rising, single point] | 17.8 µM [rising, single point]
7 | CCCCCOC(=O)C1=C(C)N(C)C(=O)NC1c1cc(Br)c(O)c(OC)c1 (configuration not stated) | – | 28.2 µM [rising, single point]
8 | N#Cc1nc(-c2cccs2)oc1N1CCN(Cc2ccccc2)CC1 | – | 20 µM [rising, single point]
9 | N#CCCN1CCN(C(=S)c2ccc(-c3ccc(Cl)c(Cl)c3)o2)CC1 | 12.6 µM [rising, single point] | –
10 | CC(=O)OC1CCC2(C)C(COc3ccc4ccc(=O)oc4c3)C(C)(O)CCC2C1(C)C (configuration not stated) | – | 22.4 µM [rising, single point]
11 | COc1ccc([N+](=O)[O-])cc1-n1cnnn1 | 0.00501 µM [rising, full curve] | 0.00501 µM [rising, full curve, poor fit]
12 | N#CC(C#N)=C1C=CC=CN1/C(=C\c1ccco1)C(=O)c1ccc(Cl)cc1 | 5.62 µM [falling, full curve] | 6.31 µM [falling, partial curve]
13 | CC(C)(C)C1CCc2onc(C(=O)Nc3cccc(O)c3)c2C1 (configuration not stated) | – | 20 µM [rising, single point]
14 | Cc1ccc2nc(Cl)c(C3CC(c4cccs4)=NN3C(=O)CCC(=O)O)cc2c1 (configuration not stated) | – | 3.16 µM [rising, full curve, poor fit]
15 | CCCN1CCN(CCCNC(=O)c2cc3c(=O)[nH]c4ccccc4c3s2)CC1 | 0.158 µM [falling, full curve, poor fit] | –
16 | COCC(=O)NCCc1nc2ccccc2[nH]1 | – | 0.02 µM [rising, full curve]
17 | CN(Cc1ccccc1)S(=O)(=O)c1ccc2[nH]cc(C(=O)NCC3CCCO3)c(=O)c2c1 (configuration not stated) | 22.4 µM [rising, single point] | –
18 | COc1ccc(CCNC(=O)c2cc(-c3ccc(C)cc3)nc3n[nH]c(-c4ccc(F)cc4)c23)cc1OC | – | 35.5 µM [falling, single point]
19 | CC1CCN(S(=O)(=O)c2ccc(C(=O)NCc3cccnc3)cc2)CC1 | – | 1.78 µM [falling, partial curve, poor fit]
20 | O=S(=O)(NC1CCCC1)c1cccc(S(=O)(=O)N2CCC(n3nnc4ccccc43)CC2)c1 | 11.2 µM [rising, single point] | 20 µM [rising, single point]
21 | c1ccc(Cn2ccnc2SCc2nnc(-c3ccccc3)o2)cc1 | 17.8 µM [rising, partial curve] | 15.8 µM [rising, single point]
22 | O=C(CCSCCc1ccccn1)Nc1ccccc1C(F)(F)F | – | 22.4 µM [rising, single point]
23 | Cc1ccc(NC(=O)c2ccc(OC(=S)N3CCOCC3)cc2)cc1 | – | 22.4 µM [falling, single point]
24 | Cc1ccc(-c2csc3nc[nH]c(=O)c23)cc1 | 0.0355 µM [falling, full curve, poor fit] | –
25 | CCOC(=O)C(C)Oc1cccc2c(=O)n(CC(=O)NCc3ccco3)ccc12 (configuration not stated) | – | 1.58 µM [rising, partial curve]
26 | COc1cc(C(=O)N/N=C/c2cc([N+](=O)[O-])cs2)cc(OC)c1OC | – | 4.47 µM [rising, full curve]
27 | C#CCOC(=O)C[N+](C)(C)C/C=C/c1ccccc1 | 0.282 µM [rising, full curve, poor fit] | –

Exported in CSV form: part of the list above
Row,Compound,AC50 [1],AC50 [2]
24,Cc1ccc(-c2csc3nc[nH]c(=O)c23)cc1,"0.0355 µM [falling, full curve, poor fit]",–
25,CCOC(=O)C(C)Oc1cccc2c(=O)n(CC(=O)NCc3ccco3)ccc12 (configuration not stated),–,"1.58 µM [rising, partial curve]"
26,COc1cc(C(=O)N/N=C/c2cc([N+](=O)[O-])cs2)cc(OC)c1OC,–,"4.47 µM [rising, full curve]"
27,C#CCOC(=O)C[N+](C)(C)C/C=C/c1ccccc1,"0.282 µM [rising, full curve, poor fit]",–

More results

Row | Compound | AC50 [1] | AC50 [2]
28 | Cc1ccc(Oc2ccc(S(=O)(=O)N3CCOCC3)cc2C(N)=O)c(-n2nc3ccccc3n2)c1 | 3.55 µM [falling, full curve] | 5.01 µM [falling, full curve]
29 | COCCCNc1oc(-c2ccc(COc3ccccc3C)o2)nc1C#N | 22.4 µM [rising, partial curve] | 28.2 µM [rising, single point]
30 | Cc1cc(C)nc(Sc2ccc([N+](=O)[O-])cc2[N+](=O)[O-])n1 | 35.5 µM [falling, single point] | –
31 | Cc1ccc(-c2noc(CCC(=O)NC3CCN(Cc4ccccc4)CC3)n2)cc1 | 10 µM [rising, partial curve, poor fit] | –
32 | O=C(CSc1nc2c([nH]c3ccccc32)c(=O)n1-c1ccccc1)Nc1ccccc1C(F)(F)F | 35.5 µM [falling, single point] | 35.5 µM [falling, single point]
33 | COC(=O)c1c(-c2cccc(OC)c2)csc1N | 14.1 µM [rising, single point] | 31.6 µM [rising, single point]
34 | CCOC(=O)C1C(=O)OC(C)(C)C1C(C)C(=O)c1ccc(C)cc1C (configuration not stated) | 35.5 µM [falling, single point] | 35.5 µM [falling, partial curve, poor fit]
35 | NS(=O)(=O)c1ccc(NCc2ccccc2OCc2ccc(F)cc2)cc1 | 2.24 µM [rising, partial curve] | 2.51 µM [rising, full curve]
36 | Cc1ccc(OCC(O)Cn2c3ccccc3c3ccccc32)cc1 (configuration not stated) | 35.5 µM [falling, single point] | 35.5 µM [falling, single point]
37 | Fc1ccc2nc(-c3ccccc3)nc(SCc3nnc(-c4ccccc4)o3)c2c1 | 5.62 µM [rising, single point] | –
38 | COc1ccc2c(c1)CC(C(=O)Nc1c(C)cc(C)cc1C)CO2 (configuration not stated) | – | 14.1 µM [rising, single point]
39 | O=C(CSC1CC(=O)N(c2ccc(C(=O)O)cc2)C1=O)Nc1ccc(Cl)cc1 (configuration not stated) | 0.00891 µM [rising, full curve] | 0.0126 µM [rising, full curve]
40 | CN1C(=O)C(c2nnc(Nc3cccc4ccccc34)s2)C2CC1(C)Oc1ccccc12 (configuration not stated) | 22.4 µM [rising, single point] | 22.4 µM [rising, partial curve]
41 | O=C(NNC1=NS(=O)(=O)c2ccccc21)c1ccccc1Cl | 0.02 µM [rising, partial curve, poor fit] | –
42 | COc1cccc(NC(=O)CSC2=Nc3ccccc3C3=NC(CCC(=O)NC4CCCCC4)C(=O)N23)c1 (configuration not stated) | 0.158 µM [falling, full curve, poor fit] | –
43 | COc1ccc(OC)c(Nc2nc(-c3sc(NC(=O)C(C)(C)C)nc3C)cs2)c1 | – | 14.1 µM [rising, single point]
44 | CCCCOc1ccc(C(=O)N/N=C/c2ccc(OCCN3CCCCC3)c(OC)c2)cc1 | – | 35.5 µM [rising, single point]
45 | COc1ccccc1NC(=O)CCNC(=O)Cn1ccc2ccccc2c1=O | – | 0.891 µM [falling, partial curve]
46 | COc1cc2c(cc1OC)C(c1ccc(-c3ccc(Cl)c(Cl)c3)o1)=NCC2 | 4.47 µM [rising, single point] | 14.1 µM [falling, single point]
47 | CCCN(CCC)S(=O)(=O)c1ccc(C(=O)N2CCC(=O)c3ccccc32)cc1 | 10 µM [rising, partial curve] | 14.1 µM [rising, single point]
48 | O=C(Nc1nnc(-c2ccc3c(c2)CCCC3)o1)C1COc2ccccc2O1 (configuration not stated) | – | 35.5 µM [rising, single point]
49 | Brc1cccc(-c2nnc(SCc3nc4ccccc4[nH]3)o2)c1 | 7.94 µM [rising, partial curve] | 11.2 µM [rising, partial curve]
50 | O=S(=O)(NCCc1ccccc1F)c1cccc(S(=O)(=O)N2CCOCC2)c1 | – | 15.8 µM [rising, single point]
51 | S=c1[nH]nc(COc2ccccc2)n1/N=C/C(Cl)=C/c1ccccc1 | 0.0316 µM [falling, single point] | 0.0316 µM [falling, single point]
52 | O=[N+]([O-])c1cccc2ccc(/C=C/c3ccc(C(F)(F)F)cc3)nc12 | 12.6 µM [rising, single point] | 25.1 µM [rising, partial curve]
53 | CN(C)c1nc(NCc2ccccc2)nc(SCC(=O)Nc2ccccc2Cl)n1 | 11.2 µM [rising, single point] | 20 µM [rising, partial curve]
54 | c1ccc(CNc2ccnc(-c3cccnc3)n2)cc1 | 35.5 µM [falling, single point] | –
